Results from paper doi:10.1101/866954.
These are yes or no findings as the source states them, for the method shown. In cells and extracts the contact can be indirect.

The chains behind the UniProt entries cited, without tags or fusion partners.
UniProt O15260: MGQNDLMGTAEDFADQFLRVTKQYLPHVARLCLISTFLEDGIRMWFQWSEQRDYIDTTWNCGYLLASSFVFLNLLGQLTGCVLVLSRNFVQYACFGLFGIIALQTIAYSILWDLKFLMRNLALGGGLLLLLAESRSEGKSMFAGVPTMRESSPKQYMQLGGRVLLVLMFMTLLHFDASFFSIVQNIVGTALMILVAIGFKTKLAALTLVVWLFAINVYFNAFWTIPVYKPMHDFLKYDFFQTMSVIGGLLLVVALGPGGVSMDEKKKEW

Molecular target: SURF4-FLAG (UniProt O15260)
Assay: co-IP

B1: calnexin (protein, UniProt P27824 21-592)
chain: HDGHDDDVIDIEDDLDDVIEEVEDSKPDTTAPPSSPKVTYKAPVPTGEVYFADSFDRGTLSGWILSKAKKDDTDDEIAKYDGKWEVEEMKESKLPGDKGLVLMSRAKHHAISAKLNKPFLFDTKPLIVQYEVNFQNGIECGGAYVKLLSKTPELNLDQFHDKTPYTIMFGPDKCGEDYKLHFIFRHKNPKTGIYEEKHAKRPDADLKTYFTDKKTHLYTLILNPDNSFEILVDQSVVNSGNLLNDMTPPVNPSREIEDPEDRKPEDWDERPKIPDPEAVKPDDWDEDAPAKIPDEEATKPEGWLDDEPEYVPDPDAEKPEDWDEDMDGEWEAPQIANPRCESAPGCGVWQRPVIDNPNYKGKWKPPMIDNPSYQGIWKPRKIPNPDFFEDLEPFRMTPFSAIGLELWSMTSDIFFDNFIICADRRIVDDWANDGWGLKKAADGAAEPGVVGQMIEAAEERPWLWVVYILTVALPVFLVILFCCSGKKQTSGMEYKKTDAPQPDVKEEEEEKEEEKDKGDEEEEGEEKLEEKQKSDAEEDGGTVSQEEEDRKPKAEEDEILNRSPRNRKPRRE
  binding: no binding
